One assay concerns the target T1, TAP-Mmi1 (S. pombe) (UniProt O74958).
T1 sequence: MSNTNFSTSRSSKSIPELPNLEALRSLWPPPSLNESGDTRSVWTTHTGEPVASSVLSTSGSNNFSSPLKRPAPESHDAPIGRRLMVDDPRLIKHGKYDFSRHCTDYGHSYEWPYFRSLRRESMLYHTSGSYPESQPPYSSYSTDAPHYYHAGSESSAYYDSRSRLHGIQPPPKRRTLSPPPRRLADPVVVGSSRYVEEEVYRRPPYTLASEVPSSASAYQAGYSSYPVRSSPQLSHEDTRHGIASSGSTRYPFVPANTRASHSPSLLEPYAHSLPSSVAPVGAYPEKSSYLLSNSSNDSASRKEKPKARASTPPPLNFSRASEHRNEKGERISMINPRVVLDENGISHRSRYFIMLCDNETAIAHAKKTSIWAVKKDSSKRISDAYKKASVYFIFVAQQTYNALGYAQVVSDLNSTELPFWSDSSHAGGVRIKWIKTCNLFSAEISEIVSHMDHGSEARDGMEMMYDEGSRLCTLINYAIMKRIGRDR
The assay can be described thus: co-IP; whole cell extracts of S. pombe grown in YE at 32°C, mock-treated or treated with RNase cocktail (30 min, room temperature); TAP-tagged protein precipitated on magnetic beads coated with anti-protein A antibody, 2 h at 4°C; lysis buffer 20 mM Tris HCl, 140 mM KCl, 1.8 mM MgCl2, 0.1% NP-40; washes with 10% glycerol and 0.2 mg/ml heparin; Western blot against myc or TAP; Ccr4-Chp1 also tested in cells lacking Mmi1.

For assay [1], the target named is T2, Ccr4 (TAP-tagged, Fig. 6a) (S. pombe) (UniProt O74874).
T2 sequence: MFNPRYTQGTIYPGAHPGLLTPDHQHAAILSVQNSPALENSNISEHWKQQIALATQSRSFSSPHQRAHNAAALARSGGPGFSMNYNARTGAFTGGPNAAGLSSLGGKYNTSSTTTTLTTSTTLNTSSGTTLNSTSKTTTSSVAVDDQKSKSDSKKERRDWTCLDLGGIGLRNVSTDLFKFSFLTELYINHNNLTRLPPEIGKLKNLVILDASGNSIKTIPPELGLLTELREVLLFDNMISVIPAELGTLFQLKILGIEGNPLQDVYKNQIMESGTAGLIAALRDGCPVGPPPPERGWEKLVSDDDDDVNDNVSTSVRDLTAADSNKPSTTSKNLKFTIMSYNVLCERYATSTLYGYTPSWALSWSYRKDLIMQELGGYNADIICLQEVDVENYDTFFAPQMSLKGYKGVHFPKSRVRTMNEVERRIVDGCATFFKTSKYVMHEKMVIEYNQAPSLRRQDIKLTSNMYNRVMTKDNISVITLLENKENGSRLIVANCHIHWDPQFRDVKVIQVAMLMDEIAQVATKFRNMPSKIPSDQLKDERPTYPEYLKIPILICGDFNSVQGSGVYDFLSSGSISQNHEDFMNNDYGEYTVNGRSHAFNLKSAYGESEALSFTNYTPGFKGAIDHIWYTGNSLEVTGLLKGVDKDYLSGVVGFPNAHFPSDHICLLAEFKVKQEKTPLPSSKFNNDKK
Described as above.

No constants are given. Whether binding was seen depends on the method and setting. In cells and extracts the contact can be indirect. Some entries that bind do so weakly or less than the wild type. Tags and fused reporters may be left off the sequences shown.

B1: Red1-myc (protein, UniProt Q9UTR8 1-712)
chain: MSRSINLDELRKKALESKKKNEEDESNDSDKEDGEISEDDPVIDQSNSVPPMKVPTFPEQIPQLPPFDRFPGTNANFFPFGAPFMLPPALMFGPNTVPFFPQTASSNKTFSKRKRSSENSFNNRNKAKSSETSDSSNTSQSFKENRALKDTATSRPLALSSDTSYQKSEKAKSEKSPFLSTSKNSDANYSKTTNQKEAEKAVSQLFEVGVRFNDFIAEGIEPSVVHTLFLKLGLDSSSASSQGSLTLSADKAARSAKLRKIDSNLSDTHILPGDNGTPTVLPERKNLISLPLLKQDDWLSSSKPFGSSTPNVVIEFDSDDDGDDFSNSKIEQSNLEKPPSNSENGLTMSRSDYLALLRNKEEEIRRMTKLILRLESNKKPYRSPTSAADMKLPSVPVAAVDNKSKTHLDTFEKVVDLSSKADFVEAGPSISSSGASSSAATTNSDTTEQILEAPWLRKTEQIAVVHEEHPAQIKKSEIDILNNLIEKEEGELTKYQTLVKSKTEILTQLYTRKKQLLEQQGKGNVACLPKESDLSMDSITEVSAQADENSSQILSSKTSNAPNGTTETDFEDKVPLVDYISPFYRFKSYRFNQQFVERVPLKYRSLTYSNKIEPMKVFCKYETTGGVCNDDHCEASHFRDIKMTDDEIIQDLSRYIEGNDEIEKESYKSGLDIVMKNTDENTDFVDVATRIVEYHNLWKSERMTIPVAKVSI
For B1, the binding result with TAP-Mmi1 (S. pombe) is given as “binds”.

B2: Chp1-myc (protein, UniProt Q10103 1-960)
chain: MVSVKPLPDIDSNEGETDADVYEVEDILADRVNKNGINEYYIKWAGYDWYDNTWEPEQNLFGAEKVLKKWKKRKKLIAKGLLEPFDAEDNEAKKMKREKEILRQQRQKRKSELTQLSQKVKEKFKKMRKKPARRIVTIANDEEEEDDQTMDEDAFERKSMQGELKERNLTDKTSTLSTSFGETSPDVNPFYLSEWPTVTDSILLSKSLSSDAIPLKNGEIKSTMLMPSDSDNSVPGIQNSNNLENTGAFVENANSPQSNTPLSTFRHSSPLSLSPVITSDNDVANSLFFSNSTPLPSSLKIKKEAPKLETHTILVSDNSGSLTKQDILSYFAFIKGNIEVFFLKSPKKDKVCNMAYIQFDSIEQAKLAYDKGHPSWHVTLVKGKISTDMEECKVSKSILKTTPSKKANARSVSFTQTTTDTLSESEKFASNVDLDENFDFNVNVTNEDAKQLKKSVIGSSWTTVNNDWNSVSKSDQTFENDGASKVVPAGNITLNSDNSLHHSISESEDLSSASTLSDYFRFVLRVGKSLYYAGELSFDISKLKAETEHQQLLRSLVSCKQVDVLRFVTSQYLEVFGTCLTKVLSGSLCIRSDVDMTHFKNILNRGNGAGIVLGSNYTLLLFTEDNNALMNLYDCQGQSNSPFWMVIFEPLESILVEWSAKNLRPKKPYHKSQSYLSYLLQLGHIDLHKIGAFQATQILIVSKQPSPEAEELEDTFREAAIPTFRGLEIPESLFLSQNVFVFLNVSLEDDFDQLQFLTLAKRKSCKFFLFGLSLPLKSPNDSHVGTDFKKNNEPLDKLTYSQYLRPMFPKGGVVSVTLSALIKTPRLLELISPFLEIKKDSWILILPPSIVDMVKSYFVTNNPDKSLLEIQNLLNTLQRYLTNPALKNVTLYQDWDIVIDDSADVSLASTLQLYQKKNYDKYRRFVLIHELKNELTPVNGLDIVDYDEFKETFMRAIGLK
For the molecule B2, in assay [1], the binding entry is listed as “binds”.

B3: Ccr4 (myc-tagged, Fig. 2b) (protein, UniProt O74874 1-690)
chain: T2 sequence
With B3, the binding result in the assay with TAP-Mmi1 (S. pombe) is “binds”.

Values taken from article PMC4536793.
